Results on 63 compounds are retold here after PubChem BioAssay AID2685 (National Center for Advancing Translational Sciences (NCATS), 2010).

This is one part of the list. These are further read-outs of the screen, such as a control signal, another cell line or another target. No call is given for them. Compounds called inactive in the main read-out are mostly missing here. The note in brackets gives the kind of curve behind each potency; many fits are weak.

The nature of this assay: qHTS Assay for Lipid Storage Modulators in Drosophila S3 Cells.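 For cell number change: cells counted by Cell Tracker Red CMTPX staining in the red channel.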 Particulars: BODIPY lipid droplet fluorescence, 18-24 h; for cell number change: measured here: cell count max response, cells fed with added oleic acid. The method, boiled down: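 Laser-scanning cytometry quantifies lipid droplet accumulation (500–530 nm total intensity; droplet/cell object ratio) in oleic acid-fed (400 uM added) Drosophila S3 cells treated with a concentration series. 20 uM Triacsin C defined 100% inhibition.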
For orientation: Quantitative high-throughput screening tests each substance at several concentrations.

[1] abbreviates: measured here: cell number channel AC50, cells fed with added oleic acid.
The mark [2] stands for this setting: measured here: lipid fluorescence (Fed channel) AC50, cells fed with added oleic acid.

A word on the AC50: it is the midpoint of the concentration-response curve, whichever way the signal moves. Low readings indicate greater potency, high ones weaker potency. On to `CC(=O)N1CCN(S(=O)(=O)c2cccc(C(=O)Nc3cc(C(F)(F)F)ccc3N3CCOCC3)c2)CC1`, for which the cell number change is 17.4%. Besides, the AC50 under setting [1] was 0.00517 µM [rising, full curve, poor fit]. Also, the AC50 under setting [2] is 0.00651 µM [rising, full curve, poor fit].

Take `CNNC(=O)C(=O)NNS(=O)(=O)c1ccccc1`: the cell number change is -48.9%.

With `Cc1cc(NC(=O)CCS(=O)(=O)c2nc(-c3ccccc3)cc(C(F)(F)F)n2)no1`, the cell number change was -88.1%. Besides, the AC50 under setting [1] is 18.4 µM [falling, single point]. In addition, the half-maximal activity concentration (AC50) under setting [2] was 1.16 µM [rising, partial curve].

Take `CCCC(=O)Nc1ccc(Cl)c(NC(=O)c2ccco2)c1`: the cell number change stood at 80.8%. In addition, the AC50 under setting [1] is 0.731 µM [rising, single point]. For the same compound, under setting [2], the AC50 was 0.58 µM [rising, single point].

As for `CCN(CC(=O)Nc1ccccc1C(F)(F)F)C(=O)C1CCN(C(=O)Nc2ccccc2)CC1`, the cell number change was -57.2%. Also, the AC50 under setting [1] is 11.6 µM [falling, partial curve]. For the same compound, the AC50 under setting [2] is 0.00731 µM [falling, full curve, poor fit].

Take `CCCCCCc1nnc(N)s1`: the AC50 under setting [2] is 1.84 µM [rising, partial curve].

For the compound `O=C(Nc1cccc2ncccc12)c1cc2ccccc2o1`, the cell number change was 6.63%. In addition, the AC50 under setting [2] is 2.59 µM [rising, partial curve].

Take `Cc1cc(C(F)F)n2ncc(C(=O)NCc3ccccc3F)c2n1`: the cell number change stood at 32.7%. Moreover, the AC50 under setting [1] is 3.26 µM [rising, full curve, poor fit]. In addition, the AC50 under setting [2] is 6.51 µM [rising, partial curve].

`c1ccc(Nc2nc(-c3ccncc3)cs2)nc1`: the cell number change is 20.5%. Also, the AC50 under setting [2] was 29.1 µM [rising, partial curve, poor fit].

As for `CN(C)CCCNC(=O)/C=C/c1ccc(OCc2c(F)cccc2Cl)cc1`, the cell number change is 2.16%.

Consider `N#CC1=C(C2CC2)CC(c2ccccc2)C(C#N)=C1N` (stereo unspecified), for which the cell number change came to 1.99%. The AC50 under setting [1] is 0.461 µM [falling, partial curve, poor fit]. Besides, under setting [2], the AC50 was 1.3 µM [rising, single point].

`Cc1noc(NS(=O)(=O)c2ccc(NC(=O)CCC3CCCCC3)cc2)c1C`: the cell number change is -4.81%. The AC50 under setting [2] was 20.6 µM [falling, single point].

Consider `Cc1ccc(OCCNC(=O)CCNC(=O)c2ccc(Cl)cc2)cc1`, for which the cell number change is -9.15%. The AC50 under setting [1] was 0.58 µM [falling, full curve, poor fit]. In addition, the AC50 under setting [2] was 0.58 µM [falling, full curve].

`CCN(CC)P(=O)(c1ccccc1)c1c(C)nc2ccccn12` (stereo unspecified): the cell number change was -7.62%. Also, the AC50 under setting [2] is 6.51 µM [falling, single point].

With `O=S(=O)(c1cccc2nsnc12)N1CCN(c2ncccn2)CC1`, the cell number change is 57.4%. Further, the AC50 under setting [1] was 29.1 µM [rising, single point]. Besides, the AC50 under setting [2] was 4.11 µM [falling, partial curve].

`COc1ccc(-c2cc(C(=O)Nc3ccc(C)cc3)no2)cc1`: the cell number change is -2.49%. Also, the AC50 under setting [2] is 0.231 µM [rising, full curve].

`O=C(Nc1nc(-c2cccc(Br)c2)cs1)Oc1ccccc1`: the cell number change was found to be 83.8%.

As to `CCOC(=O)c1cnc(N2CCOCC2)[nH]c1=O`, the cell number change came to 1.98%.

In the case of `Cc1cc(NC(=O)CSc2nnc3c(C)cc4c(C)ccc(C)c4n23)no1`, the cell number change is 3.91%.

On to `CC(C)CN(C(=O)Cn1ccccc1=O)C1CCS(=O)(=O)C1` (stereo unspecified), for which the cell number change amounted to 6.09%.

As for `NC(=O)c1cc(Cl)ccc1OCC(=O)Nc1ccc2c(c1)OCO2`, the cell number change was -10.2%.

Take `Cc1cccc(-c2oc3ccccc3c2-c2ccc3c(c2)OCO3)c1`: the cell number change was determined as 6.47%. Moreover, the AC50 under setting [2] was 29.1 µM [rising, single point].

For the compound `COc1cc(C2CC(c3c(C)cc(C)[nH]c3=O)=NN2c2ccccc2F)cc(OC)c1OC` (stereo unspecified), the cell number change worked out at 5.41%.

Consider `O=C(Nc1cccc(S(=O)(=O)N2CCOCC2)c1)c1cn(-c2ccccc2)nc1-c1ccccc1`, for which the AC50 under setting [1] is 2.06 µM [rising, partial curve].

Turning to `Cc1nn(-c2ccccc2)c2sc(C(=O)C(C#N)c3ccccn3)cc12` (stereo unspecified), under setting [1], the AC50 is 4.61 µM [rising, single point].

For the compound `COc1ccc(CC(=O)Nc2nc(-c3cccnc3)cs2)cc1`, the AC50 by setting is: under setting [1], 6.51 µM [rising, single point]; under setting [2], 0.326 µM [rising, partial curve, poor fit].

With `O=C(O)c1ccc(N/N=C/c2ccc(-c3cccc(Cl)c3)o2)cc1`, under setting [2], the AC50 was 0.461 µM [rising, full curve].

As to `CCOc1ccc2nc(SCc3ccc(OC)cc3)sc2c1`, the cell number change worked out at 16.1%. Besides, under setting [2], the AC50 was 9.2 µM [rising, partial curve].

In the case of `CCOC(=O)N1CCc2c(sc(NC(=O)CCS(=O)(=O)c3ccccc3)c2C(N)=O)C1`, the cell number change was -24.6%.

For `Cc1sc(NC(=O)C2CCCCC2)c(C#N)c1-c1ccccc1`, the cell number change is 7.13%.

As to `COc1ccc(S(=O)(=O)N2CCOC23CCN(S(=O)(=O)c2ccc(Cl)cc2)CC3)cc1`, the AC50 under setting [2] was 0.103 µM [falling, full curve, poor fit].

As for `C(=N\Nc1nc2ccccc2[nH]1)/c1cccc2cccnc12`, the cell number change was -41.8%. The AC50 under setting [1] was 23.1 µM [falling, partial curve]. For the same compound, the AC50 under setting [2] is 16.4 µM [falling, partial curve].

Regarding `CCC(c1nnc(SCC(=O)Nc2cccnc2Cl)n1-c1ccccc1)N(C)C` (stereo unspecified), the cell number change worked out at 22.2%.

Turning to `Cc1ccc(N2CCN(S(=O)(=O)N3CCCCC3)CC2)cc1Cl`, the cell number change stood at 19%. The AC50 under setting [2] was 29.1 µM [rising, single point].

As to `CCOC(=O)c1c(CN2CCOCC2)oc2ccc(OC(C)=O)cc12`, the cell number change is 0.739%. In addition, the AC50 under setting [2] was 0.00517 µM [rising, full curve, poor fit].

As to `CCN1CCN(CCCNC(=O)CCC(=O)N2CC(C)Oc3ccc(C)cc32)CC1` (stereo unspecified), the cell number change stood at 10.7%. Under setting [2], the AC50 is 6.51 µM [rising, single point].

Regarding `Cc1sc2ncn(CC(=O)NCC(=O)N(C)C3CCCCC3)c(=O)c2c1C`, the cell number change was -12.6%. Further, under setting [2], the AC50 is 0.116 µM [falling, full curve, poor fit].

For `COCCNc1nc(-c2ccc(OC)cc2)c(-c2ccc(OC)cc2)s1`, the cell number change is -67.5%. The AC50 under setting [1] was 32.6 µM [falling, single point].

With `CCOc1ccccc1NC(=O)CSc1nc(=O)n(CCN2CCOCC2)c2c1CCCC2`, the cell number change was determined as 5.49%. Also, the AC50 under setting [1] was 0.146 µM [falling, full curve, poor fit]. In addition, the AC50 under setting [2] is 0.164 µM [falling, full curve, poor fit].

For `COc1ccc(S(=O)(=O)N(CC(=O)NCc2ccncc2)c2ccc(C)cc2)cc1OC`, the cell number change was -11.8%. Besides, under setting [2], the AC50 was 1.26 µM [falling, full curve, poor fit].

`O=C(NCCN1CCN(c2ccccc2)CC1)C1(S(=O)(=O)c2ccc(Cl)cc2)CC1`: the cell number change amounted to 8.9%. The AC50 under setting [2] is 29.1 µM [rising, single point].

Take `COC(=O)CCN(C(=O)C1C2CC3CC(C2)CC1C3)c1ccccn1` (stereo unspecified): the cell number change is -8.8%. In addition, the AC50 under setting [2] is 0.517 µM [falling, single point].

For `COc1ccc(-n2cnc3scc(-c4ccccc4)c3c2=O)cc1`, the cell number change is -5.29%.

As to `CC1Cc2cc(/C(O)=C3/C(=O)C(=O)N(CCCn4ccnc4)C3c3ccco3)ccc2O1` (stereo unspecified), the cell number change was 2.1%. The AC50 under setting [2] was 20.6 µM [falling, single point].

`O=C(CCCc1ccccc1)NCc1ccc(Cl)cc1`: the cell number change is 10.6%.

On to `COc1ccc(C(=O)OC(C)C(=O)NCC2CCCCC2)cc1S(=O)(=O)N1CCOCC1` (stereo unspecified), for which the cell number change amounted to 16.4%.

Regarding `Cc1cc(C)n(C(C)Sc2ccccc2)n1` (stereo unspecified), the cell number change was found to be 23.2%. Further, the AC50 under setting [2] was 20.6 µM [rising, partial curve, poor fit].

With `Cc1onc(-c2ccccc2)c1C(=O)Nc1nnc(C(C)C)s1`, the cell number change was -12.9%. The AC50 under setting [2] was 29.1 µM [rising, single point].

As for `O=C(CCc1ccccc1)NC(=S)Nc1ccccc1Br`, the cell number change is -35.2%.

On to `Cc1nn(C)c(C(=O)N2CCN(C(=O)c3ccco3)CC2)c1Br`, for which the cell number change was -18.6%. Besides, the AC50 under setting [2] is 16.4 µM [falling, partial curve, poor fit].

As for `CCCCn1c(=NC(=O)c2cccnc2)c(C#N)cc2c(=O)n3cccc(C)c3nc21`, the cell number change came out at 14.6%. Besides, the AC50 under setting [2] was 0.411 µM [rising, full curve].

As for `CCc1cc(C(=O)NNC(=O)c2csc(N3CCOCC3)n2)sc1C`, the cell number change worked out at 1.2%.

With `COc1ccc(C(CNc2ccc(S(=O)(=O)N3CCN(C)CC3)cc2[N+](=O)[O-])N(C)C)cc1` (stereo unspecified), the cell number change was 100%. The AC50 under setting [1] is 20.6 µM [rising, single point].

For `COc1ccc(NC(=O)CSc2n[nH]c(N)n2)c([N+](=O)[O-])c1`, the cell number change amounted to 30.2%. Moreover, the AC50 under setting [1] was 1.3 µM [rising, full curve, poor fit].

As to `CN(CCC(=O)Nc1ccc2c(c1)OCO2)Cc1ccccc1`, the cell number change is -2.77%. Besides, under setting [2], the half-maximal activity concentration (AC50) was 0.259 µM [falling, partial curve, poor fit].

`O=C(NCCCN1CCOCC1)c1ccc(S(=O)(=O)Nc2cccc(C(F)(F)F)c2)cc1`: the cell number change came to 45.4%. Under setting [1], the AC50 was 23.1 µM [rising, single point].

As for `Cc1ccc(-c2nc(-c3ccccn3)no2)cc1[N+](=O)[O-]`, the cell number change amounted to 18%.

With `CCCc1nc2ccccc2n1CC(O)COc1ccc(NC(C)=O)cc1` (stereo unspecified), the cell number change is -33.9%. Also, under setting [1], the AC50 was 20.6 µM [falling, single point]. Besides, the AC50 under setting [2] was 13 µM [falling, partial curve].

Consider `O=C(COc1ccccc1[N+](=O)[O-])N/N=C/c1ccc[nH]1`, for which the cell number change was found to be 16.7%. The AC50 under setting [2] is 29.1 µM [rising, single point].

Turning to `Nc1nc(Cl)cc(Nc2ccccc2Cl)n1`, the cell number change is 8.8%. Further, the AC50 under setting [2] was 18.4 µM [rising, single point].

`CC(=O)N1CCN(c2ccc(NC(=O)c3ccc4c(c3)OCCO4)cc2)CC1`: the cell number change stood at 26.8%. For the same compound, the AC50 under setting [2] was 5.8 µM [rising, single point].

For the compound `CC1(C)CC(=O)/C(=C(/O)Cc2ccccc2)C(=NCCc2ccccc2)C1`, the cell number change was found to be 9.84%. The AC50 under setting [2] was 2.59 µM [rising, partial curve, poor fit].

`CCOC(=O)CCNCC1COc2ccccc2O1` (stereo unspecified): the cell number change was -49.3%. Further, under setting [1], the AC50 is 18.4 µM [falling, partial curve, poor fit]. The AC50 under setting [2] was 25.9 µM [falling, partial curve].
